According to patent US20100035825A1:
Results are given in words; binding and its absence hold for the method and conditions named. Binding seen in cells or lysates may run through a third protein. Some results given as binding are weak or reduced against the parent protein; the word gives no strength. Sequences can lack the tags named with a protein.

Key:
[1] = target: T1, procaspase 8 (endogenous, rat stellate cells) (rat) (UniProt Q9JHX4); assay: anti-HA co-immunoprecipitation and immunoblot, transfected rat stellate cells
T1 sequence (looked up): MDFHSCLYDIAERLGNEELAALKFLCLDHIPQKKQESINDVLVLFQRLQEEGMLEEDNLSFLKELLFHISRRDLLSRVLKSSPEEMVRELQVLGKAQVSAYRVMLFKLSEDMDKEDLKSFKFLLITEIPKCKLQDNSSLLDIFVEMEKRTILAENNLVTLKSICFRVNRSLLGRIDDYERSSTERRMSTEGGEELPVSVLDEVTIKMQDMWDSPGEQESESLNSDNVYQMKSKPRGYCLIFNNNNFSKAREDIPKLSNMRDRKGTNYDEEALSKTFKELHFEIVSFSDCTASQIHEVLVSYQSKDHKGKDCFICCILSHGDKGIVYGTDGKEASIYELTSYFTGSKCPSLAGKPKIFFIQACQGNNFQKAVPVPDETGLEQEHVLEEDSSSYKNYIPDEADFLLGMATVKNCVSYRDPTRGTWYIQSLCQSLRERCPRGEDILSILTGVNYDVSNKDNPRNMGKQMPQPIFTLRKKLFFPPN

[2] = target: T2, procaspase 1 (endogenous, rat stellate cells) (rat) (UniProt P43527); assay: as above
T2 sequence (looked up): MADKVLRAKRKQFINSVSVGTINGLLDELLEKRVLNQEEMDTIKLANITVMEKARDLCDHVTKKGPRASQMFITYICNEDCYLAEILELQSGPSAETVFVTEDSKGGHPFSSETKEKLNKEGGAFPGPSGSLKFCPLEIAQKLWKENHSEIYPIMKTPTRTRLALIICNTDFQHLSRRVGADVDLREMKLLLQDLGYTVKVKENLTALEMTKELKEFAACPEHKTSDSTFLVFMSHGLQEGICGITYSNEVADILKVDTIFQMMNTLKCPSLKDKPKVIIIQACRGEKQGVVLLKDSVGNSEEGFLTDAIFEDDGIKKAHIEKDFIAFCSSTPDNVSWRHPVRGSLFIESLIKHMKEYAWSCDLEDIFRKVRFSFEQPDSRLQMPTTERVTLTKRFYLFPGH

B1: rC/EBPβ 92-142-HA with Asp^105 (protein, not shown: small tags and cut ends)
chain: FADDYGAKPSKKPDDYGYVSLGRAGAKAAPPACFPPPPPAALKAEPGFEPA
- binding [1]: binds
- binding [2]: binds
